Earlier results as cited in patent US20060199791A1, “Anti-microbial composition comprising a metal ion chelating agent” (AQ+ PLC, priority 2001, published 2006).
For at least one compound, name, drawing or mass did not settle the structure.

System: long term sinus infection
Settings: patient history, infection for some 14 to 15 years

For `C[C@H]1c2cccc(O)c2C(=O)C2=C(O)[C@]3(O)C(=O)C(C(N)=O)=C(O)[C@@H](N(C)C)[C@@H]3[C@@H](O)[C@@H]21` [Doxycycline], the “response of the sinus infection to earlier antibiotic treatment” value is given as “resistant to treatment”.
